# In PubChem BioAssay AID2685 (National Center for Advancing Translational Sciences (NCATS), 2010):
# This is one part of the list. These are further read-outs of the screen, such as a control signal, another cell line or another target. No call is given for them. Compounds called inactive in the main read-out are mostly missing here. Words in brackets tell the shape of the fitted curve; partial curves, single points and poor fits give uncertain potencies.
# Test: qHTS Assay for Lipid Storage Modulators in Drosophila S3 Cells;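 as to cell number change: cells counted by Cell Tracker Red CMTPX staining in the red channel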
# Conditions: BODIPY lipid droplet fluorescence, 18-24 h; for cell number change: measured here: cell count max response, cells fed with added oleic acid
# Summary of the method: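 Drosophila S3 cells got compounds at several concentrations plus oleic acid (400 uM solution). Laser-scanning cytometry with 488 nm excitation read lipid droplets at 500-530 nm and cells at 575-640 nm. Percent activity was relative to 20 uM Triacsin C.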
# [1] = measured here: lipid fluorescence (Fed channel) AC50, cells fed with added oleic acid
# [2] = measured here: cell number channel AC50, cells fed with added oleic acid
Compound,cell number change [%],AC50 [1],AC50 [2]
O=C(NC1CCCC1)C(c1cccnc1)N(CCc1ccccc1)C(=O)c1ccco1 (configuration not stated),-12.4,"2.59 µM [rising, single point]",–
C=CCN1C(c2ccc(Br)cc2)=CS/C1=C(/C#N)c1nnc(N2CCOCC2)n1-c1ccccc1,15.8,"0.517 µM [rising, full curve, poor fit]",–
N#CCC(=N)N1CCN(c2ccccc2)CC1,6.37,–,–
NNc1nc2ccc(F)cc2s1,-50,"5.8 µM [rising, full curve]","0.651 µM [falling, full curve, poor fit]"
CN(CCN(C)C(C)(C)C)C(=O)C(c1ccccc1)c1ccccc1,31.1,–,"16.4 µM [rising, single point]"
COc1ccccc1N1CCN(C(=O)c2cc3cc(F)ccc3[nH]2)CC1,17.6,–,–
Cc1cc2occ(CC(=O)O)c2cc1C,-13.4,–,–
C[N+](C)(C)CCCCCC(=O)/C=N/O,-12.6,"0.0291 µM [falling, full curve, poor fit]",–
Cc1ccc(C(=O)NCc2ccc3c(c2)OCO3)o1,-7.62,"3.66 µM [falling, single point]",–
C=CCn1cnc2c(c1=O)c1nc3ccccc3nc1n2/N=C/c1cc(OC)c(OC)c(OC)c1,-20.3,–,–
CC(=O)Nc1cccc(OCC(=O)Nc2sccc2C(N)=O)c1,-46.2,"6.51 µM [falling, single point]","5.17 µM [falling, full curve, poor fit]"
Cc1nc2c([nH]1)C1(CCN(Cc3ccccc3)CC1)C(C#N)=C(N)O2,139,–,"18.4 µM [rising, single point]"
COc1ccc(C(=O)NC2CCN(C(=O)Nc3ccc(F)cc3)CC2)cc1,21.2,–,–
Nc1cc2c(cc1C(=O)c1ccc(Cl)cc1)OCCO2,139,"2.91 µM [rising, partial curve]","2.06 µM [rising, full curve]"
CC(=O)Nc1ccc(NC(=O)CSc2ncc(C(=O)Nc3ccccc3)c(=O)n2C)cc1,–,–,"3.66 µM [rising, single point]"
Cc1ccccc1[C@@H](NC(=O)OC(C)(C)C)C(=O)OC(C)(C)C,-13.3,–,–
CCC(C)[C@H](NC(=O)N1CCN(c2cccc(C(F)(F)F)c2)CC1)C(=O)OC (some centres not stated),–,"6.51 µM [rising, single point]",–
COc1ccccc1-c1ccc2nnc(SCC(=O)N3CCCC3)n2n1,–,"0.326 µM [rising, partial curve, poor fit]",–
Cc1ccc(C(=O)N(CC(=O)NC2CCCC2)c2ccccc2Cl)s1,12.6,"29.1 µM [falling, single point]",–
COc1ccccc1OCC#CCSc1ncccn1,5.1,–,–
O=C(C1=C[C@@H](c2ccccc2)C[C@@H](OCCCCO)O1)N1CCOCC1,-5.72,"0.00517 µM [falling, full curve, poor fit]",–

Compound,cell number change [%],AC50 [1],AC50 [2]
CN1C(=O)[C@H]2[C@@H](/C=C/c3ccccc3)N3C(=O)CN(CCO)C(=O)[C@@]3(Cc3ccccc3)[C@H]2C1=O,-1.2,–,–
CCCC(=O)NC(C)c1nc2ccccc2n1CC (configuration not stated),-75.9,"3.66 µM [falling, full curve, poor fit]","32.6 µM [falling, partial curve]"
Cc1nccn1-c1ccc(C(F)(F)F)cc1[N+](=O)[O-],24.2,"29.1 µM [rising, single point]",–
Cc1ccccc1Nc1nc(N)nc(COC(=O)/C=C/c2ccco2)n1,–,–,"2.31 µM [rising, partial curve, poor fit]"
COc1ccc(CNC(=O)CN2CCN(S(=O)(=O)c3cc(Br)ccc3Br)CC2)cc1OC,-13.2,"0.164 µM [falling, full curve, poor fit]",–
COc1ccc(OC)c(NC(=O)NCCCCc2ccccc2)c1,–,"29.1 µM [falling, single point]",–
CCOc1ccc(CNc2nc3ccccc3n2C)cc1,-28.4,"1.64 µM [rising, partial curve, poor fit]",–
C=C(C)C1CC=C(C)/C(=N/NC(=O)CCCNc2cccc(C)c2)C1 (configuration not stated),1.99,–,"1.46 µM [rising, full curve, poor fit]"
CCOC(=O)c1c(-c2ccc(C)o2)csc1NC(=O)CN(C)CC(=O)Nc1ccc(C)cc1,116,"0.103 µM [rising, full curve, poor fit]","5.8 µM [rising, full curve]"
N#CCCN(Cc1ccccc1)C(=O)c1nccnc1C(=O)O,-26.9,"3.66 µM [falling, full curve]","3.26 µM [falling, full curve, poor fit]"
CCOc1c(Cl)cc(C2NC(=O)NC(C)=C2C(=O)NCc2ccccc2)cc1OC (configuration not stated),-2.09,"6.51 µM [rising, single point]",–
O=c1[nH]cc(S(=O)(=O)N2CCOCC2)c(=O)[nH]1,-38.5,–,"4.61 µM [falling, full curve, poor fit]"
CCOC(=O)N1CCN(C(=O)c2ccc3c(=O)n(-c4ccc(OC)cc4)c(=S)[nH]c3c2)CC1,-13.2,–,–
CCCCn1c2ccc(C)cc2c2nnc(SCCN3CCCCC3)nc21,-12,–,–
C/C(CC(=O)Nc1ccc2c(c1)OCCO2)=N\NC(=O)COc1cccc(C)c1,18.4,–,–
COc1ccc([N+](=O)[O-])cc1N(CC(O)CN(CC(C)C)CC(C)C)S(=O)(=O)c1ccc(C)cc1 (configuration not stated),-16.3,"6.51 µM [rising, single point]",–
CCc1nnc(NC(=O)C2CCCN2S(=O)(=O)c2ccc(C)cc2)s1 (configuration not stated),-92.7,–,"29.1 µM [falling, single point]"
COc1ccc(CNC(=O)COc2cc(O)c3c(c2)OC(C)(C)CC3=O)c(OC)c1,5.83,"20.6 µM [falling, single point]",–
COc1ccccc1NC(=O)CC12CC3CC(CC(Br)(C3)C1)C2,6.67,"0.206 µM [falling, single point]",–
COc1ccc(CCNC(=O)c2cc(-c3ccc(C)c(C)c3O)n[nH]2)cc1OC,-19.6,"20.6 µM [falling, single point]",–
COc1cc(/C=N/O)ccc1Oc1ccc([N+](=O)[O-])cc1[N+](=O)[O-],1.93,"0.092 µM [falling, full curve, poor fit]",–

Compound,cell number change [%],AC50 [1],AC50 [2]
O=C(Cn1ccc([N+](=O)[O-])n1)NCc1nc2ccccc2[nH]1,12.5,"0.461 µM [falling, single point]",–
NC(=O)c1cc2ccccc2o/c1=N/NC(=O)c1cccc(Cl)c1,-9.15,–,–
COc1ccc(-c2noc(COc3ccc(C)c(C)c3)n2)cc1OC,–,"29.1 µM [rising, single point]",–
Cc1cc(Br)ccc1SCC(=O)OCC(=O)Nc1ccc2[nH]c(=O)[nH]c2c1,-0.13,"3.26 µM [rising, partial curve, poor fit]",–
COc1cc([N+](=O)[O-])ccc1NC(=O)N1CCCCCC1,7.03,"13 µM [falling, partial curve, poor fit]",–
NC(=O)C1(c2ccccc2)CCCN1C(=O)c1ccccc1Br (configuration not stated),28.1,"29.1 µM [rising, partial curve, poor fit]",–
CSc1ccccc1NC(=O)c1ccc(Br)o1,-52.6,–,"11.6 µM [falling, partial curve]"
CC(C)CNC(=O)c1c(N)n(/N=C/c2ccccn2)c2nc3ccccc3nc12,–,"0.411 µM [rising, partial curve, poor fit]","0.411 µM [rising, partial curve, poor fit]"
CCOC(=O)c1[nH]c(C)c(C(=O)Nc2cccc(Cl)c2C)c1C,-12.5,"0.82 µM [rising, full curve, poor fit]",–
O=[N+]([O-])c1cccc(C2=NC(c3ccccc3)CO2)c1 (configuration not stated),-4.49,"0.146 µM [falling, full curve, poor fit]",–
CN(C)c1cccc(C(=O)Nc2ccc(N3CCOCC3)cc2)c1,30.9,"2.06 µM [rising, partial curve]","0.461 µM [rising, partial curve]"
CS(=O)(=O)Nc1ccc(C(=O)NCCSc2ccc(Cl)cc2)cc1,-13.8,–,–
Cc1cc([N+](=O)[O-])nn1CC(=O)NCCc1c[nH]c2ccccc12,18.1,"0.259 µM [rising, full curve, poor fit]","0.0291 µM [rising, full curve, poor fit]"
CC(C)N(C)C1CCN(C(=O)Nc2ccc(Cl)cc2)CC1,-3.57,"25.9 µM [rising, single point]",–
Cc1nn(C)c(NC(=O)c2ccccc2Cl)c1Br,9.72,–,–
O=C(C(NS(=O)(=O)c1cccc2nsnc12)c1ccccc1)N1CCN(c2ccccc2)CC1 (configuration not stated),-114,"18.4 µM [falling, single point]",–
CCOC(=O)c1ccccc1NC(=S)N1CCCCC1,0.732,"0.291 µM [rising, partial curve, poor fit]",–
CCn1cc(C(=O)OCC(=O)c2cc(C)n(-c3ccccc3)c2C)c(=O)c2ccc(C)nc21,9.21,"14.6 µM [rising, single point]",–
FC(F)(F)c1cccc(NCc2n[nH]c(=S)n2C2CCCCC2)c1,1.59,–,–
CC(=O)c1c(C)[nH]c(C(=O)NCc2cccc(Cl)c2)c1C,-2.03,"4.11 µM [rising, single point]","0.116 µM [rising, full curve, poor fit]"

# Among those listed so far, these contain a tert-butyl group.
Compound,cell number change [%],AC50 [1],AC50 [2]
CN(CCN(C)C(C)(C)C)C(=O)C(c1ccccc1)c1ccccc1,31.1,–,"16.4 µM [rising, single point]"
Cc1ccccc1[C@@H](NC(=O)OC(C)(C)C)C(=O)OC(C)(C)C,-13.3,–,–

# Structural class, the entries above containing a COOH group
Compound,cell number change [%],AC50 [1],AC50 [2]
Cc1cc2occ(CC(=O)O)c2cc1C,-13.4,–,–
N#CCCN(Cc1ccccc1)C(=O)c1nccnc1C(=O)O,-26.9,"3.66 µM [falling, full curve]","3.26 µM [falling, full curve, poor fit]"
